Measured values published in PubChem BioAssay AID248 (DTP/NCI, 2004).
The list is a part of this screen's results and no random one: it gathers tests that were run many times, whatever their T/C, doses with no T/C, and many T/C values between a quarter and a half above the control. Further doses and runs are listed elsewhere. T/C is the treated group as % of the vehicle group. Some entries give survivors of the animals treated and no T/C: the source holds a T/C of zero for them, seemingly a mark for toxic or unscored doses. Some doses without a T/C left all or most animals alive at the check, yet need not have been tolerated: the source hardly ever lists a survival T/C far under the control, and the zero likely stands for such cases as well. Counts of survivors are from the toxicity check (mostly the fifth day) where no day follows; animals may have died later. Schedule codes are those of the source, read here as Q, the interval in days (D) or hours (H), X, the number of doses. Where survival is the endpoint, this PubChem deposit counts one and a half times the control or more as active, and values a quarter to a half above the control carry no call in these data; other NCI protocols may use other cut-offs.

System: L1210 leukemia ip in BDF1 mice, survival T/C
Experiment: NCI In Vivo Anticancer Drug Screen. Data for tumor model L1210 Leukemia (intraperitoneal) in B6D2F1 (BDF1) mice
Conditions: T/C endpoint: mean survival time, higher T/C = longer survival
[1] = dose: 200.0 mg/kg/injection, schedule: Q04DX003 (ip), vehicle: saline with Tween-80
[2] = dose: 400.0 mg/kg/injection, schedule: Q04DX003 (ip), vehicle: saline with Tween-80
[3] = dose: 100.0 mg/kg/injection, schedule: Q04DX003 (ip), vehicle: Klucel (hydroxypropylcellulose) (HPC)
[4] = dose: 400.0 mg/kg/injection, schedule: Q04DX003 (ip), vehicle: Klucel (hydroxypropylcellulose) (HPC)
[5] = dose: 100.0 mg/kg/injection, schedule: Q01DX009 (ip), vehicle: Klucel (hydroxypropylcellulose) (HPC)
[6] = dose: 200.0 mg/kg/injection, schedule: Q01DX009 (ip), vehicle: Klucel (hydroxypropylcellulose) (HPC)
[7] = dose: 400.0 mg/kg/injection, schedule: Q01DX001 (ip), vehicle: Klucel (hydroxypropylcellulose) (HPC)
[8] = dose: 25.0 mg/kg/injection, schedule: Q01DX009 (ip), vehicle: Klucel (hydroxypropylcellulose) (HPC)
[9] = dose: 50.0 mg/kg/injection, schedule: Q01DX009 (ip), vehicle: Klucel (hydroxypropylcellulose) (HPC)
[10] = dose: 400.0 mg/kg/injection, schedule: Q01DX009 (ip), vehicle: Klucel (hydroxypropylcellulose) (HPC)
[11] = dose: 400.0 mg/kg/injection, schedule: Q04DX002 (ip), vehicle: saline with Tween-80
[12] = dose: 100.0 mg/kg/injection, schedule: Q04DX002 (ip), vehicle: Klucel (hydroxypropylcellulose) (HPC)
[13] = dose: 200.0 mg/kg/injection, schedule: Q04DX002 (ip), vehicle: Klucel (hydroxypropylcellulose) (HPC)
[14] = dose: 400.0 mg/kg/injection, schedule: Q04DX002 (ip), vehicle: Klucel (hydroxypropylcellulose) (HPC)

Question: What does the source list for O=NN(CCCl)C(=O)Nc1ccc(Cn2ccc(=O)[nH]c2=O)cc1?
Answer: T/C (dose: 16.0 mg/kg/injection, schedule: Q01DX001 (ip), vehicle: carboxymethylcellulose (CMC)): 138 % of control; T/C (dose: 93.0 mg/kg/injection, schedule: Q01DX001 (ip), vehicle: carboxymethylcellulose (CMC)): 128 % of control; survivor count (dose: 250.0 mg/kg/injection, schedule: Q01DX001 (ip), vehicle: carboxymethylcellulose (CMC)): 4 of 6; survivor count (dose: 375.0 mg/kg/injection, schedule: Q01DX001 (ip), vehicle: carboxymethylcellulose (CMC)): 5 of 6; survivor count (dose: 500.0 mg/kg/injection, schedule: Q01DX001 (ip), vehicle: carboxymethylcellulose (CMC)): 4 of 6; survivor count (dose: 750.0 mg/kg/injection, schedule: Q01DX001 (ip), vehicle: carboxymethylcellulose (CMC)): 5 of 6

Question: Which survivor count (dose: 100.0 mg/kg/injection, schedule: Q04DX003 (ip), vehicle: saline with Tween-80) does the source give for CC(O)CN1CCCCCC1 (configuration not stated) here?
Answer: 1 of 6

Question: What about the survivor count [1] of the same molecule?
Answer: 0 of 6

Question: And the survivor count [2]?
Answer: 0 of 6

Question: Brc1ccc[n+](Cc2ccccc2)c1 was tested. Which survivor count (dose: 150.0 mg/kg/injection, schedule: Q01DX001 (ip), vehicle: saline) did it give?
Answer: 0 of 6

Question: What about the survivor count (dose: 300.0 mg/kg/injection, schedule: Q01DX001 (ip), vehicle: saline) of the same molecule?
Answer: 0 of 6

Question: Which survivor count (dose: 400.0 mg/kg/injection, schedule: Q01DX009 (ip), vehicle: saline sonified) does the source give for C=CP(c1ccccc1)c1ccccc1 here?
Answer: 1 of 6

Question: What does the source list for CC(=O)Oc1ccc(N(CCO)CCO)cc1OC(C)=O?
Answer: survivor count (dose: 9.38 mg/kg/injection, schedule: Q01DX001 (ip), vehicle: water): 0 of 6; survivor count (dose: 18.75 mg/kg/injection, schedule: Q01DX001 (ip), vehicle: water): 0 of 6; survivor count (dose: 37.5 mg/kg/injection, schedule: Q01DX001 (ip), vehicle: water): 0 of 6; survivor count (dose: 75.0 mg/kg/injection, schedule: Q01DX001 (ip), vehicle: water): 0 of 6; survivor count (dose: 150.0 mg/kg/injection, schedule: Q01DX001 (ip), vehicle: water): 0 of 6; survivor count (dose: 300.0 mg/kg/injection, schedule: Q01DX001 (ip), vehicle: water): 0 of 6

Question: For Cc1cc(=O)c2c(C)cccc2[nH]1, which survivor count (dose: 12.5 mg/kg/injection, schedule: Q04DX003 (ip), vehicle: saline with Tween-80) is on record?
Answer: 6 of 6

Question: And the survivor count [3]?
Answer: 6 of 6

Question: And the survivor count (dose: 200.0 mg/kg/injection, schedule: Q04DX003 (ip), vehicle: Klucel (hydroxypropylcellulose) (HPC))?
Answer: 3 of 6

Question: What about the survivor count [4] of the same molecule?
Answer: 0 of 6

Question: Which survivor count (dose: 200.0 mg/kg/injection, schedule: Q01DX009 (ip), vehicle: saline with Tween-80) does the source give for Nc1ccc(CCCCc2ccc(Cl)cc2Cl)cc1 here?
Answer: 1 of 6

Question: With O=[N+]([O-])c1ccc(C2SCSCS2)cc1 as the molecule, how does the survivor count [5] read?
Answer: 6 of 6

Question: Which results are given for CC(=O)N(N=O)c1ccc(N(N=O)C(C)=O)cc1?
Answer: survivor count (dose: 40.0 mg/kg/injection, schedule: Q01DX001 (ip), vehicle: saline): 0 of 4; survivor count (dose: 50.0 mg/kg/injection, schedule: Q01DX001 (ip), vehicle: saline): 2 of 4; survivor count (dose: 80.0 mg/kg/injection, schedule: Q01DX001 (ip), vehicle: saline): 0 of 4; survivor count (dose: 100.0 mg/kg/injection, schedule: Q01DX001 (ip), vehicle: saline): 0 of 4; survivor count (dose: 200.0 mg/kg/injection, schedule: Q01DX001 (ip), vehicle: saline): 0 of 4; survivor count (dose: 400.0 mg/kg/injection, schedule: Q01DX001 (ip), vehicle: saline): 0 of 4

Question: Which T/C (dose: 16.0 mg/kg/injection, schedule: Q01DX001 (ip), vehicle: other) does the source give for CC(C)(Cc1ccccc1)NC(=O)N(CCCl)N=O here?
Answer: 125 % of control

Question: What about the T/C (dose: 125.0 mg/kg/injection, schedule: Q01DX001 (ip), vehicle: other) of the same molecule?
Answer: 148 % of control

Question: For O=C(NCCCl)NC1CCCc2ccccc21 (configuration not stated), which survivor count [5] is on record?
Answer: 2 of 6

Question: And the survivor count [6]?
Answer: 2 of 6

Question: And the survivor count [7]?
Answer: 0 of 6

Question: What does the source list for COc1ccccc1N=NN(C)C?
Answer: survivor count (dose: 12.0 mg/kg/injection, schedule: Q01DX009 (ip), vehicle: Klucel (hydroxypropylcellulose) (HPC)): 3 of 6; survivor count (dose: 12.5 mg/kg/injection, schedule: Q01DX009 (ip), vehicle: Klucel (hydroxypropylcellulose) (HPC)): 6 of 6; survivor count [8]: 0 of 6; survivor count (dose: 25.0 mg/kg/injection, schedule: Q04DX003 (ip), vehicle: Klucel (hydroxypropylcellulose) (HPC)): 6 of 6; survivor count [9]: 0 of 6; survivor count [5]: 0 of 6; survivor count [6]: 0 of 6; survivor count [10]: 0 of 6

Question: How did the T/C (dose: 50.0 mg/kg/injection, schedule: Q04DX002 (ip), vehicle: saline with Tween-80) turn out when O=C(NC(=S)NNC(=S)NNc1ccccc1)c1ccccc1 was run?
Answer: 132 % of control

Question: And the survivor count (dose: 100.0 mg/kg/injection, schedule: Q01DX009 (ip), vehicle: saline with Tween-80)?
Answer: 2 of 3

Question: And the survivor count [11]?
Answer: 1 of 3

Question: Which survivor count [11] does the source give for O=S(=O)(CCCl)Cc1ccccc1 here?
Answer: 0 of 3

Question: Which survivor count [12] does the source give for CCCCCCCCCCCC[N+](CCCCCCCCCCCC)=C1SCCS1 here?
Answer: 0 of 3

Question: And the survivor count [13]?
Answer: 0 of 3

Question: What about the survivor count [14] of the same molecule?
Answer: 1 of 3

Question: CCOC(=O)C(C(=O)OCC)C(=O)c1cc(-c2ccc(Cl)c(Cl)c2)nc2c(Cl)cc(Cl)cc12 was tested. Which survivor count [6] did it give?
Answer: 2 of 6

Question: And the survivor count [4]?
Answer: 1 of 6

Question: How did the survivor count [3] turn out when CN(C)S(=O)(=O)/C=C/c1ccccc1 was run?
Answer: 0 of 6

Question: For CC(=O)N1CCOC12CCN(Cc1ccccc1)CC2, which survivor count [1] is on record?
Answer: 4 of 6

Question: What about the survivor count [2] of the same molecule?
Answer: 1 of 6

Question: How did the survivor count [9] turn out when CCN(CC)CCCN=C(N)CCl was run?
Answer: 0 of 3

Question: And the survivor count [12]?
Answer: 0 of 3

Question: And the survivor count [13]?
Answer: 0 of 3

Question: What about the survivor count [14] of the same molecule?
Answer: 0 of 3

Question: CCC1CC(C#N)C(=O)NC1=O (configuration not stated) was tested. Which survivor count (dose: 50.0 mg/kg/injection, schedule: Q04DX003 (ip), vehicle: saline) did it give?
Answer: 5 of 6

Question: And the survivor count (dose: 100.0 mg/kg/injection, schedule: Q01DX001 (ip), vehicle: Klucel (hydroxypropylcellulose) (HPC))?
Answer: 0 of 7

Question: And the survivor count (dose: 200.0 mg/kg/injection, schedule: Q01DX001 (ip), vehicle: Klucel (hydroxypropylcellulose) (HPC))?
Answer: 0 of 7

Question: What about the survivor count [7] of the same molecule?
Answer: 0 of 7

Question: For CCCCCCCCCCCCCCCCS(=O)CCCCCCCCCCCCCCCC, which survivor count [8] is on record?
Answer: 3 of 3

Question: Which survivor count [10] does the source give for Oc1ccc(/C=N\Nc2ccccn2)c(O)c1 here?
Answer: 1 of 6

Question: Which survivor count (dose: 20.0 mg/kg/injection, schedule: Q01DX009 (ip), vehicle: Klucel (hydroxypropylcellulose) (HPC)) does the source give for N#CCN1CCCCCC1 here?
Answer: 3 of 6

Question: And the survivor count (dose: 40.0 mg/kg/injection, schedule: Q04DX003 (ip), vehicle: Klucel (hydroxypropylcellulose) (HPC))?
Answer: 0 of 6

Question: How did the survivor count [10] turn out when CC1SC(=S)N(c2ccc(Cl)cc2)C1=O (configuration not stated) was run?
Answer: 0 of 6

Question: What about the survivor count [4] of the same molecule?
Answer: 6 of 6

Question: How did the survivor count (dose: 400.0 mg/kg/injection, schedule: Q01DX001 (ip), vehicle: saline with Tween-80) turn out when CC(N)c1ccccc1 (configuration not stated) was run?
Answer: 2 of 6

Question: Which survivor count [12] does the source give for CCCCCCCCCCCCCCCCCCNC(=O)Nc1nccs1 here?
Answer: 3 of 3

Question: With N/C(=N/N=C/c1ccccn1)N[N+](=O)[O-] as the molecule, how does the survivor count (dose: 50.0 mg/kg/injection, schedule: Q01DX009 (ip), vehicle: saline with Tween-80) read?
Answer: 3 of 6
